According to publication PMC9019020, “Low complexity RGG-motif sequence is required for Processing body (P-body) disassembly” (Nature Communications, 2022):
Results are given in words; binding and its absence hold for the method and conditions named. Where a sequence is shown, tags or fusion partners need not be part of it. Values belong to the molecule of their own block, whether it stands above or below them.

Experiments:
His-Edc3-mCherry = target: T1, His-Edc3-mCherry (S. cerevisiae, UniProt P39998 1-551); assay: condition: 100 pmol of each of the purified proteins; pull-down; RFP magnetic agarose beads (Chromotek) capture Edc3-mCherry; 100 pmol of each purified protein; 4 °C, 2 h; 50 mM HEPES pH 7, 100 mM NaCl, 1 mM DTT, 2 mM MnCl2, 2 mM MgCl2, 1% Triton-X100, 10% glycerol, 0.25 mg/mL RNase A; western blot; both purified
T1 construct: Edc3, P-body protein of S. cerevisiae with Lsm, FDF and YjeF-N domains; full length; also called full-length Edc3; purified Edc3; source: E. coli BL21, purified (Ni-NTA agarose, batch; RNase A added during purification); not shown: His, N-terminal, kept; mCherry, C-terminal, kept
T1 sequence (looked up): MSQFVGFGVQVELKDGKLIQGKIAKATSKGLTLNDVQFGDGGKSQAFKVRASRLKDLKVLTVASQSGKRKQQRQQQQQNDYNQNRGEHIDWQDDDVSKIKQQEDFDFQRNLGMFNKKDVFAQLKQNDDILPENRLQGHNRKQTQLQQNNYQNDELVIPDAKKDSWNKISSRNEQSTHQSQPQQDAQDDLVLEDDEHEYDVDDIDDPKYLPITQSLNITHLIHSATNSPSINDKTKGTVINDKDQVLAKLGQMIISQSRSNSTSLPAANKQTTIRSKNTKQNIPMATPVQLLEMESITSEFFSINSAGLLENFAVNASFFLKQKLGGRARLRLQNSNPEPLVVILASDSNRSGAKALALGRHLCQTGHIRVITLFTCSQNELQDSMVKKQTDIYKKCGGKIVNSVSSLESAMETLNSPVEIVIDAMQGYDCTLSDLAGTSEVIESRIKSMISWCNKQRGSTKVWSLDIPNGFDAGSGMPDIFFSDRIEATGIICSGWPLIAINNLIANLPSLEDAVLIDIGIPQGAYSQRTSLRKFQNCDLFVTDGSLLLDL

[1] = target: GST-tagged Edc3 FDF domain (S. cerevisiae); assay: condition: 200 pmol of each of the purified proteins; pull-down; GST-tagged Edc3 fragments immobilised on glutathione sepharose beads, purified Sbp1 added; 200 pmol of each protein; 4 °C, 2 h; 50 mM HEPES pH 7, 100 mM NaCl, 1 mM DTT, 2 mM MnCl2, 2 mM MgCl2, 1% Triton-X100, 10% glycerol, 0.25 mg/mL RNase A, 10 mg/mL BSA; western blot; both purified

binding (His-Edc3-mCherry): no binding
Molecule: His-Sbp1ΔRGG-FLAG (from UniProt P10080)

binding [1]: no binding
B1: His-Sbp1-FLAG (natural protein, S. cerevisiae, UniProt P10080 1-294, looked up)
chain: MSAEIEEATNAVNNLSINDSEQQPRAPTHKTVIDPEDTIFIGNVAHECTEDDLKQLFVEEFGDEVSVEIPIKEHTDGHIPASKHALVKFPTKIDFDNIKENYDTKVVKDREIHIKRARTPGQMQRGGFRGRGGFRGRGGFRGGFRGGYRGGFRGRGNFRGRGGARGGFNGQKREKIPLDQMERSKDTLYINNVPFKATKEEVAEFFGTDADSISLPMRKMRDQHTGRIFTSDSANRGMAFVTFSGENVDIEAKAEEFKGKVFGDRELTVDVAVIRPENDEEEIEQETGSEEKQE
notes: Sbp1, RGG-motif containing translation repressor of S. cerevisiae; wild type; also called wild-type Sbp1; purified Sbp1; source: E. coli BL21, purified (Ni-NTA agarose, batch; RNase A added during purification); not shown: His, N-terminal, kept; FLAG, C-terminal, kept
